The other results are listed elsewhere or left out.

Chains of the proteins cited; added tags and fusions are not shown.
UniProt Q0JBA9, entry or part of it: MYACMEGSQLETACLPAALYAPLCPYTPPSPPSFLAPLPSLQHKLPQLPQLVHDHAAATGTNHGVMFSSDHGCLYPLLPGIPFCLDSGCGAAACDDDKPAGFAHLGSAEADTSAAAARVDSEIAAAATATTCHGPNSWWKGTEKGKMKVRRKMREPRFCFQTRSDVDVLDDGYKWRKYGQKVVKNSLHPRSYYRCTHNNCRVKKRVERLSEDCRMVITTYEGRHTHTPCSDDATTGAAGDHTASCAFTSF

Drawing on PMC7819943, “Rice protein-binding microarrays: a tool to detect cis-acting elements near promoter regions in rice”, this text covers binding signal for 42 sequences.

This assay has as its target OsWRKY34 (Oryza sativa, UniProt Q0JBA9 1-250). The experiment in a line: protein-binding microarray (RPBM); PBS, 2% BSA, 51.3 ng/ul salmon testes DNA, 50 uM zinc acetate, 200 nM TF, 25 C, 1 h; high values mean tight binding. To be noted: protein: recombinant; tags: N-terminal polyhistidine and DsRed monomer fusion (pET32a); label: CyDye5-dUTP incorporated in the synthesized complementary strand; 3' TTTTT single-stranded linker to array surface; dsDNA, one strand shown. In a few lines:
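Binding signal is defined as the fluorescence intensity of each feature in arbitrary units, read on an Axon 4000B scanner. Transcription factors with N-terminal polyhistidine and DsRed fusions came from E. coli BL21-CodonPlus and were purified on Ni–NTA. They were incubated at 200 nM for 1 h at 25 °C on a custom Agilent array that had been made double-stranded with Cy5-dUTP, with 50 µM zinc acetate present, and the array was washed.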
For “AGAGGGGAGGGAGGAGGATTATGGTTTTTTTTCTCTAAAACGGAGTCACCTAGTGCAG”, the binding signal was 16700 fluorescence intensity (a.u.).
As for “TTATCTATTTTTTTGACTTACTTTACTATCCAAAGTACTTCGGAGTCACCTAGTGCAG”, the figure is 9030 fluorescence intensity (a.u.); as for “ATCTTGATATTGACGAAGTCATCACATGCGCATCGTTGCCCGGAGTCACCTAGTGCAG”, 8160 fluorescence intensity (a.u.).
To “GCACAAATCCACTACCCCACCACTCCCTTTCTCTTTCTCACGGAGTCACCTAGTGCAG” belongs 10300 fluorescence intensity (a.u.); to “AAATGTGGAATGGTTGGCCTGGGTTGGCTTGGGACGAGCTCGGAGTCACCTAGTGCAG”, 17000 fluorescence intensity (a.u.).
As for “TTGGGCTATTCCTCGACTCTAGGTTGGGTGAGAGACTTGTCGGAGTCACCTAGTGCAG”, the figure is 8250 fluorescence intensity (a.u.); as for “GTAGGATATGATGCACAATTCGCTTCCCAGTCACCTTCCACGGAGTCACCTAGTGCAG”, 9040 fluorescence intensity (a.u.); as for “CTGCCGCCTTGCTGCCAGCCCTCCGCTCTGGCCTCCGCCGCGGAGTCACCTAGTGCAG”, 8450 fluorescence intensity (a.u.).
As for “GATTATCTGCGCAAATACTGTTACCGTATTAACACACATTCGGAGTCACCTAGTGCAG”, the binding signal is 8240 fluorescence intensity (a.u.).
As for “ATGACGTCATTTGGTTGGTCTAGAACATTCGTTCCGTCCTCGGAGTCACCTAGTGCAG”, the figure is 8880 fluorescence intensity (a.u.).
With “TATTTACACGCTTTTCAAACTATTAAATGATATGTTTTTTCGGAGTCACCTAGTGCAG”, the binding signal is 9560 fluorescence intensity (a.u.).
To “CTCAGCTCACACACTTCGTCTCCACTATACTACCTAGCTACGGAGTCACCTAGTGCAG” belongs 8360 fluorescence intensity (a.u.).
Turning to “ACTCATCCGCCGCTGAGCTCTATCTATCTACTAGTTAGTTCGGAGTCACCTAGTGCAG”, the binding signal was 8840 fluorescence intensity (a.u.).
Consider “TTTTTTGGCGATCTCTTCTGTGTTCCTTTGTTAGTCTAGCCGGAGTCACCTAGTGCAG”, for which the binding signal was 12000 fluorescence intensity (a.u.).
On to “GTACTTTAAGCACAACTTTTTATTTTTTATATTTGCAAAACGGAGTCACCTAGTGCAG”, for which the binding signal is 8410 fluorescence intensity (a.u.).
As to “ATTAATTCTGTTTTTTTCAAGTCTCTCTCGCTCTCGCTCCCGGAGTCACCTAGTGCAG”, the binding signal was 8820 fluorescence intensity (a.u.).
Take “ACTGCGCTCCGTACTTGCAACTGCACGCATCATTCAGAAACGGAGTCACCTAGTGCAG”: the binding signal was 8080 fluorescence intensity (a.u.).
To “TGAGTATGATGAGATTAATTTCTTGCCTGTTTCTGCTGGACGGAGTCACCTAGTGCAG” belongs 8120 fluorescence intensity (a.u.).
To “CGTCGTCTTCCTCACCGTTCGCGCATCAACAACCTTGTCGCGGAGTCACCTAGTGCAG” belongs 9650 fluorescence intensity (a.u.).
To “ATTAGATTCTACTATTCATGCAGGGGTAAGATGGGCATTTCGGAGTCACCTAGTGCAG” belongs 8910 fluorescence intensity (a.u.).
As for “CGTGCCACTCGATTTGTTGATTTGTTGCCGATTTGCTGCCCGGAGTCACCTAGTGCAG”, the binding signal is 10800 fluorescence intensity (a.u.).
As for “TCTTTGCAGGTCACTTCCGGGTGCTTCACATTCCGGTTAACGGAGTCACCTAGTGCAG”, the figure is 8890 fluorescence intensity (a.u.).
To “CCCTATATAAGTCATTTTGTTTCAAATGTCCATCCACATACGGAGTCACCTAGTGCAG” belongs 9750 fluorescence intensity (a.u.); to “GCCCCTTATTTGTTCATGCGTTGCTCCACATCCTCCATAACGGAGTCACCTAGTGCAG”, 11200 fluorescence intensity (a.u.).
As for “TTTTTTTTGAGAGTAGCTATATTTATGGCGCCATATTTTTCGGAGTCACCTAGTGCAG”, the figure is 8420 fluorescence intensity (a.u.).
Turning to “ATTCACCGTACCCCGCTAGCCCTTGTTACTTCCAGTCTCTCGGAGTCACCTAGTGCAG”, the binding signal was 14500 fluorescence intensity (a.u.).
Turning to “CTGCCACGCCGCCGTAACCACCACTCAACTGCCACATACCCGGAGTCACCTAGTGCAG”, the binding signal was 9130 fluorescence intensity (a.u.).
With “GGCAATCTAGTCTTTTTCGATTGTTTCTCTCTCCATTTTCCGGAGTCACCTAGTGCAG”, the binding signal is 9660 fluorescence intensity (a.u.).
To “TGCTGCCCATCCCCTCCATTGCTAGCATCGGCAGCTTCCACGGAGTCACCTAGTGCAG” belongs 8870 fluorescence intensity (a.u.).
On to “GGCTGGGGTGGGCTCTACTTGACAGACTGATACTCCTACTCGGAGTCACCTAGTGCAG”, for which the binding signal is 19600 fluorescence intensity (a.u.).
“GATCTGTCTACACATGCATGACCCTCGCGAGACTCATCTCCGGAGTCACCTAGTGCAG”: the binding signal was 11600 fluorescence intensity (a.u.).
Regarding “CGTCCTCGCGGGCGCGCTGCCGATTTCCCCTGCGCGCACACGGAGTCACCTAGTGCAG”, the binding signal is 8290 fluorescence intensity (a.u.).
Take “TTTTTTTCTCTCGAGGGGATGTCTCTTCCTTTCATGTCTTCGGAGTCACCTAGTGCAG”: the binding signal was 8180 fluorescence intensity (a.u.).
In the case of “TCTCTGTGTACCGTTTCTCTCGCCGATTGTGTACCGATTCCGGAGTCACCTAGTGCAG”, the binding signal is 9360 fluorescence intensity (a.u.).
As for “TTTTTTTCGTCGGTATATATCCATGTGTGATCTTGTTTTGCGGAGTCACCTAGTGCAG”, the figure is 11200 fluorescence intensity (a.u.); as for “AATTCCTGCGTTTTTCATGTGGTCCAATCAAACGGTCATTCGGAGTCACCTAGTGCAG”, 8780 fluorescence intensity (a.u.); as for “GGATTATTTTGGCGATAATATGAACAGCCCTTACATTTCTCGGAGTCACCTAGTGCAG”, 8980 fluorescence intensity (a.u.).
As for “GCCGCCTGGCCGCCAACACGTCCAGTACGCCGTTCGTTACCGGAGTCACCTAGTGCAG”, the figure is 8780 fluorescence intensity (a.u.); as for “GACCAACCCATTGCATGTTCCTTTTTCGTAACAATTTTAACGGAGTCACCTAGTGCAG”, 11200 fluorescence intensity (a.u.).
To “AATAATCGAATCCAATCCATCTTCCACGCGCATTCCGGATCGGAGTCACCTAGTGCAG” belongs 9290 fluorescence intensity (a.u.); to “ATTTTTGTGTCAAGGTTGCCATTCTCTTTCCTGAATTTGTCGGAGTCACCTAGTGCAG”, 8390 fluorescence intensity (a.u.); to “TTTATTCGTCCTGTTCCTTTCGTTCCATTCCTAAATCCTACGGAGTCACCTAGTGCAG”, 8600 fluorescence intensity (a.u.).
